Experimental data: PMC4900676
No constants are given. Whether binding was seen depends on the method and setting. In cells and extracts the contact can be indirect. Binding calls can cover weak binding; strength is not graded here. Where a sequence is shown, tags or fusion partners need not be part of it.

What was measured:
[1] = biological target: T1, Myc-Smo (Drosophila Smoothened, Myc-tagged) (Drosophila) (UniProt P91682); test: co-IP; S2 cells transfected with the indicated constructs, grown with or without Hh-conditioned medium for 24 h (MG132 50 μM for 4 h before harvest in Fig 7A-D and G); lysates precipitated with Myc (HA or Flag) antibody and protein A-Sepharose, western blot
T1 sequence: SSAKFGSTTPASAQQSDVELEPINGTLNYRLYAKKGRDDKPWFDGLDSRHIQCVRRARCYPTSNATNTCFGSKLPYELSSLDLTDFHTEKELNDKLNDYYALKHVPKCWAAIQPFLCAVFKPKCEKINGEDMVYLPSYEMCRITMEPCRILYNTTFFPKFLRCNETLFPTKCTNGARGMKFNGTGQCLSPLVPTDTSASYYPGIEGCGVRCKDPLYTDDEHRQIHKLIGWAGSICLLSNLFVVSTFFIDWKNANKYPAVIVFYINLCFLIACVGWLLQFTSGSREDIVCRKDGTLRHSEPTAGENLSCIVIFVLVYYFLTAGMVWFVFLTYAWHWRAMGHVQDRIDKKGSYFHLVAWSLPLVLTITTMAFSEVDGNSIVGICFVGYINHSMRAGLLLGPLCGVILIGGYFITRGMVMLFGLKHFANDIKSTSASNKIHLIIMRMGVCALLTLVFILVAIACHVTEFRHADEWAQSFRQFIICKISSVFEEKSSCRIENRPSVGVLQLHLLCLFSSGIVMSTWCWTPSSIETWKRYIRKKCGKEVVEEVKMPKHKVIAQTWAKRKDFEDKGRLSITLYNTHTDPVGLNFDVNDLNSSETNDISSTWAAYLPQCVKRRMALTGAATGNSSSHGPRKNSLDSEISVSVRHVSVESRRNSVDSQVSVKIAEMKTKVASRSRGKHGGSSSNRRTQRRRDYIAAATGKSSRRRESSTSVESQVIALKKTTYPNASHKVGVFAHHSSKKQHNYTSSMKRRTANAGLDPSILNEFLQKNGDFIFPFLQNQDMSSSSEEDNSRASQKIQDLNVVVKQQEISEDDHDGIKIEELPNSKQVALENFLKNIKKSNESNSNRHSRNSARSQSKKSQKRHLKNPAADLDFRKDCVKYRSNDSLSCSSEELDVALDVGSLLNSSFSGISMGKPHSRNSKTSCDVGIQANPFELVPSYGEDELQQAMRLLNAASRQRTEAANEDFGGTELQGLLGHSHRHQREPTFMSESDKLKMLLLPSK

[2] = biological target: T2, Myc-SmoΔC650 (Drosophila) (UniProt P91682); test: as above
T2 sequence: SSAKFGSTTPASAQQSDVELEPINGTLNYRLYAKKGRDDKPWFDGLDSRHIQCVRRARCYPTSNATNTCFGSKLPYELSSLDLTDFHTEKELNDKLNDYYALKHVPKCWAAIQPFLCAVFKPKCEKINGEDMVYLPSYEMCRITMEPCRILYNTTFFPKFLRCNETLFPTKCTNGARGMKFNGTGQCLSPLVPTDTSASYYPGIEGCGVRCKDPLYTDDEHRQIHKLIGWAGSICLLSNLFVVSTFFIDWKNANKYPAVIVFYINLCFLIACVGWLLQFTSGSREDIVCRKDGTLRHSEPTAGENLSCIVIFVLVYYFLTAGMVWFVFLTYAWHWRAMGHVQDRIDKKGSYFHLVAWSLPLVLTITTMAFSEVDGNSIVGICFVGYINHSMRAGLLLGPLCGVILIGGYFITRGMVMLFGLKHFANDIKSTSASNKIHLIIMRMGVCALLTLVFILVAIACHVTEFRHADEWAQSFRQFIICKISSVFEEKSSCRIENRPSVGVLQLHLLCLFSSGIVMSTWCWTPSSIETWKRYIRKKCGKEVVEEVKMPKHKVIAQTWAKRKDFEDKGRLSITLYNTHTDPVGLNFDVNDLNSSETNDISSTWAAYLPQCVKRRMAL

Substance	binding [1]	binding [2]
HA-Gish (Drosophila) (enzyme)	binds	binds
endogenous Gish (Gilgamesh, Drosophila CK1γ) (enzyme)	binds	
